# Data reported in PubChem BioAssay AID595 (National Center for Advancing Translational Sciences (NCATS), 2007).
# Values joined by “and” are separate entries in the source; they are usually repeats but may differ in a detail not shown here. Equal entries are not always repeated. The whole screen tested about 71,000 compounds, of which about 310 (0.44%) were called active. The inconclusive results got no clear call from the source; some entries with a clear call stand among them for comparison. Calls follow the shape of the dose curve; as a rule, active = well fitted curve in either direction with a large enough effect; inconclusive = small, poorly fitted or top-dose-only effect, or another doubt; inactive = flat fitted curve, though single readings scatter. Potencies beside an inconclusive call are fits to weak or partial responses and may not hold up.
# Tested on: Hsp90 C-terminal peptide / TPR2A (Hop) interaction, human
# Assay: qHTS Assay for Disrupters of an Hsp90 Co-Chaperone Interaction
# Settings: AlphaScreen TPR2A-His6 binding biotin-Hsp90 C-terminal peptide; activity change, negative = inhibition: at 57 µM (top of the series) unless noted
# % is scaled to controls: 0 for no effect and ±100 for the full control effect; potency is read from the fitted curve at half-maximal effect.
Structure (SMILES),Potency,"activity change, negative = inhibition"
CCOC(=O)c1cc(-c2ccc3c(c2)OCCO3)nc2c1c(C)nn2CCC#N,"inconclusive: 25.1 µM [activator, single point]",–
COc1cccc(Cn2c(=O)c(-c3ccc(Cl)cc3)nc3cnc(N(C)C)nc32)c1,–,inactive
Cc1[nH]n2c(=O)cc(C(C)C)nc2c1-c1ccccc1,–,inconclusive: 44.3%
c1ccc(-c2ccc(N3CC[C@@]4(CCCNC4)C3)cc2)cc1,–,inactive
c1ccc2c(c1)nc(NCCN1CCOCC1)c1nncn12,–,inconclusive: 44.4%
Cc1cc(C)c2nc(C(F)(F)F)nc(N3CC(C)OC(C)C3)c2c1 (stereo not drawn),–,inactive
Cc1ccc2nc(NC3=NCN(Cc4ccc5c(c4)OCO5)CN3)nc(C)c2c1,–,inconclusive: 40.7%
Cc1ccccc1Cn1nnc(-c2cccc(C(=O)O)c2)n1,–,inconclusive: 41.6%
COc1ccc(OCCN(C)Cc2ccccc2)cc1,–,inconclusive: 52.5%
Cc1cc(C(=O)NCCC2=CCCCC2)c(C)o1,–,inconclusive: 36.7%
Cc1noc(C)c1-c1nccc(NCc2ccccc2)n1,–,inactive
CC(=O)c1sc2ccccc2c1OC(=O)c1ccco1,–,inactive
C=CCOC(=O)C1CC=CCC1C(=O)Oc1ccc(F)cc1F (stereo not drawn),"inconclusive: 31.6 µM [activator, single point]",–
Cc1ccc(C)n1-c1ccc(N2CCOCC2)cc1,–,inconclusive: -25.3%
COc1cccc(-c2nn(C)c3sc(C(=O)N4CCOCC4)cc23)c1,–,inconclusive: 46.3%
CN1C(=O)CC(P(=O)(c2ccccc2)c2ccccc2)N(C)C1=O (stereo not drawn),–,inactive: -3.08% [at 11 µM]
COC(=O)c1cc(NC(=O)CSc2nnc(CN3CCOCC3)n2C)ccc1Cl,–,inconclusive: 35%
CN(C)c1nc(-c2cccc(NS(C)(=O)=O)c2)nc2ccccc12,–,inactive
c1ccc(CCc2ccccc2-c2nc(-c3ccccn3)no2)cc1,"inconclusive: 31.6 µM [activator, single point]",–
Clc1ccc(Cc2nnc(-c3ccccc3Br)o2)cc1,"inconclusive: 31.6 µM [activator, single point]",–
CC(C)OC(=O)CSc1nnc(-c2ccc(Cl)cc2Cl)o1,–,inconclusive: 84.5%

Structure (SMILES),Potency,"activity change, negative = inhibition"
CC(C)[C@@H](CC(=O)N[C@@H]1CCCC[C@H]1C(=O)N[C@H](CC(=O)N[C@@H](CCC(=O)O)CC(=O)O)Cc1ccccc1)NC(=O)C[C@H](Cc1ccccc1)NC(=O)[C@@H]1CNCC[C@H]1N,–,inconclusive: 48.7%
Cc1ccc2c(c1)[C@H]1OCC[C@H]1[C@@H](c1ccncc1)N2,–,inactive
C[N+](C)(CCCOc1ccccc1)c1ccccc1,–,inactive
COc1cc(C)c(S(=O)(=O)NCc2cccs2)cc1C,–,inconclusive: 57.8%
Cc1ccc(S(=O)(=O)Nc2ccccc2CNc2c(C)n(C)n(-c3ccccc3)c2=O)cc1,–,inactive
COc1ccc(C)cc1NC(=O)c1ccc2c(c1)OCO2,–,inconclusive: 85.2%
CCc1ccc2oc(-c3cc(N=Cc4cccc(OC)c4O)ccc3O)nc2c1,–,inactive
CCCC(=O)NCCc1c2n(c3ccc(OC)cc13)Cc1ccccc1-2,–,inactive
Cc1cc(C)nc(SCc2nnc(SCC(=O)OC3CCCCC3)o2)n1,–,inconclusive: 59.8%
Cc1ccccc1CS(=O)(=O)Cc1ccc(C(=O)NCc2ccccn2)o1,active: 3.98 µM,–
CC(C)CCNC(=O)C(c1ccco1)N(C(=O)Cn1nnc2ccccc21)c1ccc2c(c1)OCO2 (stereo not drawn),–,inconclusive: 61.3%
CCC(C)(c1ccc(C(=O)OC)s1)c1ccc(C(=O)OC)s1,"inconclusive: 25.1 µM [activator, single point]",–
CCC1CCCCN1S(=O)(=O)c1ccc(S(=O)(=O)N(Cc2cccs2)C2CC2)cc1 (stereo not drawn),"inconclusive: 31.6 µM [activator, single point]",–
COc1cccc(C=NC=Nc2cccc(OC)c2)c1,"inconclusive: 31.6 µM [activator, single point]",–
O=C(CN1CCC(c2nc3ccccc3[nH]2)CC1)Nc1ccc2c(c1)OCO2,–,inactive
NCCC[C@@H](CC(=O)N[C@@H]1CCCC[C@H]1C(=O)N[C@H](CC(=O)N[C@@H](CCC(=O)O)CC(=O)O)Cc1c[nH]c2ccccc12)NC(=O)C[C@H](Cc1ccccc1)NC(=O)[C@@H]1CNCC[C@H]1N,–,inactive
CCNc1ncc2nc(-c3ccccc3)c(=O)n(-c3ccc(OC)cc3)c2n1,active: 3.98 µM [activator],–
C/C(=C\C(=O)c1ccccc1)Nc1cccc(O)c1,"inconclusive: 3.16 µM [inhibitor, single point]",–
Cc1ccc(NCc2nnc(SCC(=O)Nc3cccc(O)c3)n2CC2CCCO2)c(C)c1 (stereo not drawn),–,inactive
O=C(c1ccc(COc2ccc3c(c2)CCC3)o1)N1CCN(c2ccccc2)CC1,–,inconclusive: 41.6%
COc1ccc(C2C(C(=O)N3CCOCC3)CCC(=O)N2c2ccc(OC)cc2)cc1 (stereo not drawn),–,inconclusive: 52.6%

# Another view of 22 compounds above.
Structure (SMILES)	Potency	activity change, negative = inhibition
c1ccc(CCc2ccccc2-c2nc(-c3ccccn3)no2)cc1	inconclusive: 31.6 µM [activator, single point]	–
Clc1ccc(Cc2nnc(-c3ccccc3Br)o2)cc1	inconclusive: 31.6 µM [activator, single point]	–
CC(C)OC(=O)CSc1nnc(-c2ccc(Cl)cc2Cl)o1	–	inconclusive: 84.5%
CC(C)[C@@H](CC(=O)N[C@@H]1CCCC[C@H]1C(=O)N[C@H](CC(=O)N[C@@H](CCC(=O)O)CC(=O)O)Cc1ccccc1)NC(=O)C[C@H](Cc1ccccc1)NC(=O)[C@@H]1CNCC[C@H]1N	–	inconclusive: 48.7%
Cc1ccc2c(c1)[C@H]1OCC[C@H]1[C@@H](c1ccncc1)N2	–	inactive
C[N+](C)(CCCOc1ccccc1)c1ccccc1	–	inactive
COc1cc(C)c(S(=O)(=O)NCc2cccs2)cc1C	–	inconclusive: 57.8%
Cc1ccc(S(=O)(=O)Nc2ccccc2CNc2c(C)n(C)n(-c3ccccc3)c2=O)cc1	–	inactive
COc1ccc(C)cc1NC(=O)c1ccc2c(c1)OCO2	–	inconclusive: 85.2%
CCc1ccc2oc(-c3cc(N=Cc4cccc(OC)c4O)ccc3O)nc2c1	–	inactive
CCCC(=O)NCCc1c2n(c3ccc(OC)cc13)Cc1ccccc1-2	–	inactive
Cc1cc(C)nc(SCc2nnc(SCC(=O)OC3CCCCC3)o2)n1	–	inconclusive: 59.8%
Cc1ccccc1CS(=O)(=O)Cc1ccc(C(=O)NCc2ccccn2)o1	active: 3.98 µM	–
CC(C)CCNC(=O)C(c1ccco1)N(C(=O)Cn1nnc2ccccc21)c1ccc2c(c1)OCO2 (stereo not drawn)	–	inconclusive: 61.3%
CCC(C)(c1ccc(C(=O)OC)s1)c1ccc(C(=O)OC)s1	inconclusive: 25.1 µM [activator, single point]	–
CCC1CCCCN1S(=O)(=O)c1ccc(S(=O)(=O)N(Cc2cccs2)C2CC2)cc1 (stereo not drawn)	inconclusive: 31.6 µM [activator, single point]	–
COc1cccc(C=NC=Nc2cccc(OC)c2)c1	inconclusive: 31.6 µM [activator, single point]	–
O=C(CN1CCC(c2nc3ccccc3[nH]2)CC1)Nc1ccc2c(c1)OCO2	–	inactive
NCCC[C@@H](CC(=O)N[C@@H]1CCCC[C@H]1C(=O)N[C@H](CC(=O)N[C@@H](CCC(=O)O)CC(=O)O)Cc1c[nH]c2ccccc12)NC(=O)C[C@H](Cc1ccccc1)NC(=O)[C@@H]1CNCC[C@H]1N	–	inactive
CCNc1ncc2nc(-c3ccccc3)c(=O)n(-c3ccc(OC)cc3)c2n1	active: 3.98 µM [activator]	–
C/C(=C\C(=O)c1ccccc1)Nc1cccc(O)c1	inconclusive: 3.16 µM [inhibitor, single point]	–
Cc1ccc(NCc2nnc(SCC(=O)Nc3cccc(O)c3)n2CC2CCCO2)c(C)c1 (stereo not drawn)	–	inactive

# The list continues:

Structure (SMILES),Potency,"activity change, negative = inhibition"
Cc1cc(C(=O)Nc2cccnc2)no1,–,inconclusive: 52%
COc1ccc(Nc2nc(N)nc(SCc3nnc(C)s3)n2)cc1,–,inactive
COc1ccc(-c2cn3cccnc3n2)cc1NC(=O)c1ccc(Br)o1,–,inactive
Nc1ccc(N=Nc2ccc(-c3ccc(O)cc3)cc2)c2ccc(S(=O)(=O)O)cc12,"inconclusive: 3.98 µM [inhibitor, partial curve]",–
C/C(NC(=O)c1ccccc1)=C1/C(=O)CC2C1C2(C)C (stereo not drawn),"inconclusive: 3.98 µM [activator, single point]",–
CCCn1nc(C(=O)OCC(=O)c2ccc3c(c2)NC(=O)CO3)c2ccccc2c1=O,–,inconclusive: 40.4%
COc1ccc(Cn2c(C3CC3)nc3ccc(NC(=O)C4CC4)cc3c2=O)cc1,–,inactive
Cc1ccc(N(CC(=O)NCc2ccco2)S(=O)(=O)c2ccccc2)cc1,–,inconclusive: 40.4%
O=C(O)c1cccnc1-c1ncccc1C(=O)O,–,inconclusive: 61.9%
CCCCC(CC)COC(=O)C(C#N)=C(c1ccccc1)c1ccccc1 (stereo not drawn),"inconclusive: 31.6 µM [activator, partial curve]",–
C[N+](C)(C)CCN(Cc1cccs1)c1ccccn1,–,inactive: -3.84% [at 11 µM]
COc1ccccc1-n1nnnc1SCc1cc2c(cc1Br)OCO2,"inconclusive: 31.6 µM [activator, single point]",–
Fc1c(F)c(F)c(CSc2nc3ccccc3[nH]2)c(F)c1F,active: 3.98 µM [activator],–
COc1ccc(-c2cc(C(F)(F)F)n3nc(C)cc3n2)cc1,"inconclusive: 20 µM [activator, single point]",–
O=c1c2ccccc2n(Cc2ccc(F)cc2)c(=O)n1C1CCCC1,"inconclusive: 20 µM [activator, single point]",–
CCN(CC)C(=S)SSC(=S)N(CC)CC,"inconclusive: 25.1 µM [inhibitor, partial curve] and inconclusive: 12.6 µM [inhibitor, partial curve]",–
CCNc1nc2c(c(=O)[nH]c(=O)n2C)n1Cc1ccc(F)cc1,–,inactive
CC(NC(=O)c1ccco1)C(=O)Nc1nc(-c2ccccn2)cs1 (stereo not drawn),active: 10 µM,–
CCc1cc2c(NCC(=O)O)ncnc2s1,"inconclusive: 3.98 µM [inhibitor, single point]",–
CCCS(=O)(=O)n1nc(-c2ccc(Br)cc2)cc1N,–,inactive
CN1CCN(CCCNc2nc3ccccc3c3nc(-c4ccccc4)nn23)CC1,–,inactive

Structure (SMILES),Potency,"activity change, negative = inhibition"
CN1CCN(c2ccnc(-c3ccoc3)n2)CC1,–,inactive
c1ccc(-c2ccccn2)nc1,active: 12.6 µM,–
C[C@]12C[C@H](O)[C@H]3[C@@H](CCC4=CC(=O)CC[C@@]43C)[C@@H]1CC[C@@H]2C(=O)CO,–,inactive
COc1ccc(OC)c(NC(=O)C2CCCN(S(=O)(=O)c3cccc4cccnc34)C2)c1 (stereo not drawn),–,inconclusive: 40.4%
Cc1ccc(S(=O)(=O)NC(=O)Nn2c(C)nnc2C)cc1,–,inactive
CCOc1ccc(/C(=N\O)C(C)NO)cc1 (stereo not drawn),–,inconclusive: 33.7%
COc1cc2cc(CN(Cc3nnnn3Cc3ccco3)C3CCCCC3)c(=O)[nH]c2cc1OC,"inconclusive: 31.6 µM [inhibitor, single point]",–
CCCC(=O)c1cc2cc(Cl)ccc2oc1=O,–,inconclusive: 43.9%
CCNC(=O)C1CN(S(=O)(=O)c2ccccc2)CCN1S(=O)(=O)c1ccccc1 (stereo not drawn),–,inconclusive: 34.4%
COc1cccc(-c2cncnc2NCc2ccccc2)c1,–,inconclusive: 86.6%
Oc1ccc(COCc2ccccc2)c2cccnc12,active: 25.1 µM,–
N#CC1=C(N)Oc2c(ccc3cccnc23)C1c1cccnc1 (stereo not drawn),active: 31.6 µM,–
CN(C)/C=N/c1c(C#N)nnn1Cc1ccccc1,–,inconclusive: 52.3%
CCCCOC(=O)CSc1nnc(-c2ccc(Cl)cc2Cl)o1,"inconclusive: 25.1 µM [activator, single point]",–
O=c1[nH]c(CN2CCN(Cc3ccccc3)CC2)nc2sc3c(c12)CCC3,–,inconclusive: 41.4%
O=C(Nc1nc2n(n1)C(c1ccccc1)C=C(c1ccccc1)N2)c1ccco1 (stereo not drawn),"inconclusive: 31.6 µM [inhibitor, single point]",–
Nc1nnc(CC(=O)N2CCCCC2)s1,–,inconclusive: 52.5%
CCOC(=O)c1cc2sc(C)cc2n1C(C)C(=O)OCC (stereo not drawn),"inconclusive: 25.1 µM [activator, single point]",–
NCCSCCc1ccccc1,–,inactive: 0.829% [at 11 µM]
c1coc(-c2nc(-c3ccco3)c(-c3ccco3)nc2-c2ccco2)c1,"inconclusive: 25.1 µM [inhibitor, partial curve]",–
